PubChem BioAssay AID540276 (National Center for Advancing Translational Sciences (NCATS), 2011)
Several values for one entry are separate records, joined by “and”; a condition that tells them apart may be missing. Equal values may be shown once. The campaign covered roughly 300,000 compounds. About 5,400 (1.8%) were called active. The shares of active, inactive and inconclusive entries below differ from those in the screen. Calls follow the shape of the full dose curve; tested in HEK293 cells. Potencies beside an inconclusive call are fits to weak or partial responses and may not hold up.

experiment: qHTS for inhibitors of binding or entry into cells for Marburg Virus; conditions: Marburg virus pseudotyped entry inhibition, cell reporter; series mostly up to 37.8 µM
Potency is read from the fitted curve at half-maximal effect.

Row | SMILES | Potency
1 | O=C(NC1CCCCC1)c1ccc2c(c1)OCO2 | inconclusive: 0.562 µM [activator, full curve, poor fit]
2 | Cc1cc(NCCCN2CCOCC2)n2ncc(-c3ccccc3)c2n1 | inconclusive: 35.5 µM [inhibitor, single point]
3 | CCc1ccc(NC2Nc3cc(C)nn3S2)cc1 (stereo unspecified) | inconclusive: 0.316 µM [activator, partial curve, poor fit]
4 | Cc1c(C(=O)N(C)Cc2cccc(F)c2)oc2c(Cl)cccc12 | inconclusive: 5.62 µM [inhibitor, single point]
5 | Cc1ccc2[nH]c(=O)c(CN(CCCN(C)C)C(=O)Nc3ccc(F)cc3)cc2c1 | inconclusive: 35.5 µM [inhibitor, partial curve, poor fit]
6 | Cc1ccc(NC(=O)C(=O)NCCN2CCN(C(=O)C(c3ccccc3)c3ccccc3)CC2)cc1 | inactive
7 | O=C(CN1CCOCC1)NN=C1CCCCCCCCCCC1 | inconclusive: 4.47 µM [activator, full curve, poor fit]
8 | CC(C)(C)CC(=O)Nc1cc(S(=O)(=O)N2CCCCCC2)ccc1Cl | inconclusive: 0.562 µM [activator, partial curve, poor fit]
9 | COc1ccc(OCc2cc(C(=O)N3CCC(OC)CC3)no2)c2ccccc12 | inconclusive: 2.24 µM [activator, partial curve, poor fit]
10 | O=C(NC1CCCCC1)C(=S)NCCc1ccccc1 | inconclusive: 14.1 µM [activator, single point]
11 | CNCCC(Oc1ccccc1C)c1ccccc1 (stereo unspecified) | active: 14.1 µM
12 | O=S(Cc1ccc(Cl)cc1)c1ncc(CO)n1Cc1ccccc1 (stereo unspecified) | inconclusive: 35.5 µM [inhibitor, single point]
13 | O=C(CCSc1nc2cc(Cl)ccc2o1)N1CCOCC1 | inconclusive: 29.1 µM [inhibitor, single point]
14 | O=C(O/N=C(\c1ccccc1)c1ccncc1)c1ccccc1F | inconclusive: 3.16 µM [inhibitor, partial curve, poor fit]
15 | Cc1cc(Cl)ccc1NNC(=O)c1cccs1 | inactive
16 | CCN(CC)S(=O)(=O)c1cc(C(=O)N2CCc3ccccc32)ccc1Cl | inconclusive: 0.891 µM [inhibitor, full curve, poor fit]
17 | C=CC1=C(C(=O)O)N2C(=O)C(NC(=O)Cc3ccccc3)C2SC1 (stereo unspecified) | inactive
18 | O=C(C1CCN(S(=O)(=O)c2cccc3cccnc23)CC1)N1CCN(C2CCCCC2)CC1 | inactive
19 | CCOc1ccccc1NC(=O)c1cccc(NC(=O)CC(c2ccccc2)c2ccccc2)c1 | inconclusive: 29.1 µM [inhibitor, single point]
20 | CC(C)=CCCC(C)=CCON=C1C[C@@H](O)[C@@H](O)[C@@H]2[C@H]3C(=O)N(c4ccc(F)cc4F)C(=O)[C@@H]3CC[C@H]12 | inconclusive: 0.299 µM [inhibitor, partial curve, poor fit]
21 | CCCCOc1ccc(C(=O)NCC(=O)NC2CCN(Cc3ccccc3)CC2)cc1 | inconclusive: 10 µM [inhibitor, single point]
22 | C=CCn1c(Cc2c[nH]c3ccccc23)n[nH]c1=S | inactive

Row | SMILES | Potency
23 | N#CCCn1nc(-c2ccc(Br)cc2)cc1Nc1ccccc1NC(=O)C(F)(F)F | inconclusive: 35.5 µM [inhibitor, single point]
24 | COc1cc(OC)cc(C(=O)NNC(=O)c2ccc3c(c2)OCCO3)c1 | inactive
25 | CCOc1ccc(CCNC(=O)C2CCN(Cc3nc(-c4ccccc4C)oc3C)CC2)cc1OCC | inactive
26 | CCOC(=O)C1CCCN(S(=O)(=O)c2ccc(Br)c(OC)c2)C1 (stereo unspecified) | inconclusive: 3.98 µM [inhibitor, partial curve, poor fit]
27 | CCOC(=O)C1NN=C(C(=O)c2ccc(C)cc2)C1c1ccc(C)cc1 (stereo unspecified) | inconclusive: 0.631 µM [inhibitor, partial curve, poor fit]
28 | CCN(CC)CCNS(=O)(=O)c1ccc2[nH]cc(C(=O)O)c(=O)c2c1 | inactive
29 | Cc1ccc(NC(=O)COC(=O)[C@@H]2CC(O)CN2S(=O)(=O)c2ccc3c(c2)OCCO3)cc1 (stereo partly specified) | inconclusive: 0.891 µM [inhibitor, partial curve, poor fit]
30 | O=C(c1cccc2ccccc12)N1CCN(c2ccc([N+](=O)[O-])c(N3CCOCC3)c2)CC1 | inconclusive: 35.5 µM [inhibitor, single point]
31 | O=C(NC(=S)Nc1ccc(NC(=O)c2ccccc2)cc1)c1ccc(F)cc1 | inactive
32 | Oc1cc(NCc2cccnc2)ccc1-c1nc2ccccc2o1 | inconclusive: 32.6 µM [inhibitor, partial curve, poor fit]
33 | O=C1c2cccc3cccc(c23)C(=O)N1CCc1ccccc1 | inconclusive: 6.31 µM [inhibitor, partial curve, poor fit]
34 | COc1ccc(/C(O)=C2\C(=O)C(=O)N(c3cc(C)on3)[C@H]2c2ccccc2OC)cc1C | inactive
35 | O=C(Nc1cccc(NC(=O)c2ccc(-c3ccc(Br)cc3)o2)c1)c1ccccc1 | inconclusive: 11.2 µM [inhibitor, partial curve]
36 | Cc1ccn2c(Nc3ccccc3C)c(-c3cccnc3)nc2c1 | inconclusive: 11.2 µM [inhibitor, partial curve, poor fit] and inconclusive: 28.2 µM [inhibitor, partial curve, poor fit]
37 | COc1ccc2cc(C(=O)C3CCCN(C(=O)CSc4nnc(C)o4)C3)ccc2c1 (stereo unspecified) | inconclusive: 12.6 µM [inhibitor, partial curve, poor fit]
38 | COc1ccccc1/C=C/C(=O)NCCC1=CCCCC1 | inconclusive: 10 µM [inhibitor, partial curve, poor fit]
39 | CC1=C(SCc2ccccc2)C(=O)c2ccccc2C1=O | inconclusive: 11.2 µM [inhibitor, partial curve, poor fit]
40 | CCN(CC)c1ccc(C=Nc2cc(C)ccc2C)c(O)c1 | inactive
41 | O=C(Nc1ccc(O)c(-c2nc3ccccc3o2)c1)C1(c2ccc([N+](=O)[O-])cc2)CCCC1 | inconclusive: 35.5 µM [inhibitor, partial curve, poor fit]
42 | Nc1no[n+]([O-])c1-c1ccccc1 | inactive
43 | CC(=O)OC1(C(C)=O)CCC2C3CC4OC45CC(O)CCC5(C)C3CCC21C (stereo unspecified) | inconclusive: 20 µM [activator, single point]
44 | CCn1c(C)nc2cc(C(=O)N/N=C/c3ccccc3C)ccc21 | inconclusive: 35.5 µM [inhibitor, partial curve, poor fit]

Row | SMILES | Potency
45 | CCOc1ccc(NC(=O)Cn2cc(C(=O)c3ccccc3)c(=O)c3cc4c(cc32)OCCO4)cc1 | inconclusive: 5.62 µM [inhibitor, partial curve, poor fit]
46 | O=C(NCC1CCCO1)C1CCN(C2CCN(C3CCCCCC3)CC2)CC1 (stereo unspecified) | inconclusive: 11.2 µM [inhibitor, partial curve, poor fit]
47 | CCc1ccccc1Nc1cc(C(=O)NCCCN(C)C2CCCCC2)c2ccccc2n1 | inconclusive: 11.2 µM [inhibitor, partial curve, poor fit]
48 | Clc1ccc(-c2noc(-c3cccnc3N3CCN(c4ccccc4)CC3)n2)cc1 | inactive
49 | O=C(c1nn2c(C(F)(F)F)cc(-c3cccs3)nc2c1Cl)N1CCCc2ccccc21 | inconclusive: 14.6 µM [activator, single point]
50 | CC1(C)Nc2ccccc2C(=O)N1c1ccc(Br)cc1 | inactive
51 | COC(=O)c1c(NC(=S)NNC(=O)c2ccc(Cl)s2)sc(C(=O)N(C)C)c1C | inactive
52 | COc1ccccc1NC(=O)CC1S/C(=N/N=C2\CCCc3ccccc32)NC1=O (stereo unspecified) | inconclusive: 31.6 µM [inhibitor, partial curve, poor fit]
53 | Cc1ncsc1CCC(=O)N1CCCC(C(=O)c2ccc3c(c2)OCO3)C1 (stereo unspecified) | inconclusive: 31.6 µM [inhibitor, single point]
54 | CCCCOc1ccc(NC(=O)CN2CCN(CC)CC2)cc1 | inactive
55 | COc1ccc(/C=N/NC(=O)c2cc(C)n(-c3ccccc3)c2C)cc1OC | inconclusive: 22.4 µM [inhibitor, single point]
56 | Cc1nn(CC2CC2)c(=O)n1-c1ccccc1 | inactive
57 | Cc1ccc(N=C2C(=S)N(c3ccc(C)cc3)C(=N)N2/N=C/c2ccc(Cl)cc2)cc1 | inconclusive: 14.6 µM [activator, partial curve, poor fit]
58 | Cc1ccc(-c2[nH]c3ccccc3c2SCCNC(=O)c2cc3ccccc3oc2=O)cc1 | inactive
59 | Cc1onc(-c2ccccc2Cl)c1C(=O)NC(=S)Nc1ccccc1C(N)=O | inactive
60 | O=S(c1ccc2ccccc2c1)c1cnns1 (stereo unspecified) | inconclusive: 11.2 µM [inhibitor, single point]
61 | Cc1ccc(NC(=O)c2ccc3c(c2)OCCO3)cc1S(=O)(=O)Nc1cccc(Cl)c1 | inconclusive: 22.4 µM [inhibitor, single point]
62 | COC(=O)N/N=C/c1ccc(OCCSc2ccc(Cl)cc2)c(OC)c1 | inactive
63 | COc1ccc(O)c(CN2CCC(n3nccc3NC(=O)C3CCCC3)CC2)c1 | inconclusive: 11.2 µM [inhibitor, partial curve]
64 | COc1ccc(C(=O)NC(=S)N(C)Cc2ccccc2)cc1Br | inconclusive: 0.794 µM [inhibitor, full curve, poor fit]
65 | Cc1nnc(Sc2cc(NCCCO)c([N+](=O)[O-])c3nonc23)s1 | inactive
66 | COC(=O)C=CC(=NNc1ccccc1)c1ccccc1 | inconclusive: 10 µM [inhibitor, partial curve, poor fit]

Entries listed so far containing a COOH group (2):
Row | SMILES | Potency
17 | C=CC1=C(C(=O)O)N2C(=O)C(NC(=O)Cc3ccccc3)C2SC1 (stereo unspecified) | inactive
28 | CCN(CC)CCNS(=O)(=O)c1ccc2[nH]cc(C(=O)O)c(=O)c2c1 | inactive
